PubChem BioAssay AID743454 – Peter MacCallum Cancer Centre, 2014

Screen: 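Knock-downs lowering viability or raising caspase 3/7 activity in vorinostat-treated resistant cells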 (primary screen)
Cell system: human HCT116-VR colon cancer cells, selected for vorinostat resistance
Knock-down reagent: siRNA pool against human genes, 40 nM siRNA pool
Time to read-out: vorinostat for 24 h, read-out about 72 h after transfection
Treatment: vorinostat at 2.5 µM final
Detection: 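Cell viability by CellTiter-Fluor and caspase 3/7 activity by luminescence, each scaled to mock wells per plate, duplicates averaged, then robust z-scored over all plates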
Scale: viability robust z-score: higher = more viable cells than screen typical; caspase robust z-score: higher = more caspase 3/7 activity than screen typical
Hit rule: 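a knock-down is a hit when classed RV1 or RV2 for lowered viability, or CA1 or CA2 for caspase activation; those lethal without drug were dropped; hits were retested singly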
Shown is one part, drawn at random, of about 18,000 reagents. 450 of them (2.5%) count as active. 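Single biological run; no consistent viability z cut-off exists, so the class columns, not z-scores, define the calls.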 Entries without a mark were called inactive. No sequences are given here.

| target | viability hit class | caspase hit class | viability robust z-score | caspase robust z-score |
| --- | --- | --- | --- | --- |
| TRNT1 (tRNA nucleotidyl transferase 1) | no change | no change | 0.57 | -0.62 |
| GPR50 (G protein-coupled receptor 50) | no change | no change | 0.36 | 0.04 |
| ADAM18 (ADAM metallopeptidase domain 18) | no change | no change | -0.5 | 0.86 |
| CD24 (CD24 molecule) | no change | no change | -1.6 | 2.62 |
| NGRN (neugrin, neurite outgrowth associated) | no change | no change | 0.99 | -0.17 |
| FAM110D (family with sequence similarity 110 member D) | no change | no change | 0.02 | -0.24 |
| THEM6 (thioesterase superfamily member 6) | no change | no change | 2.56 | 0.38 |
| HSD17B12 (hydroxysteroid 17-beta dehydrogenase 12) | no change | no change | 1.17 | 0.9 |
| FUT5 (fucosyltransferase 5) | no change | no change | 1.39 | -0.29 |
| KNDC1 (kinase non-catalytic C-lobe domain containing 1) | no change | no change | -0.05 | -0.09 |
| RGCC (regulator of cell cycle) | no change | no change | -0.48 | 0.52 |
| FAM153CP (family with sequence similarity 153 member C, pseudogene) | no change | no change | -1.45 | -0.72 |
| CCL14 (C-C motif chemokine ligand 14) | no change | no change | 1 | -0.62 |
| KLHL40 (kelch like family member 40) | no change | no change | 0.78 | -0.18 |
| BEX3 (brain expressed X-linked 3) | no change | no change | -1.46 | 0.94 |
| GPR83 (G protein-coupled receptor 83) | no change | no change | 0.31 | -0.57 |
| GAGE2E (G antigen 2E) | no change | no change | 0.36 | -0.79 |
| ADM (adrenomedullin) | no change | no change | -1.07 | 0.16 |
| VPS51 (VPS51 subunit of GARP complex) | no change | no change | -1.54 | -0.31 |
| OC90 (otoconin 90) | no change | no change | -0.48 | -0.3 |
| NSD3 (nuclear receptor binding SET domain protein 3) | no change | no change | -0.96 | -0.08 |
| PRKAG2 (protein kinase AMP-activated non-catalytic subunit gamma 2) | no change | no change | 0.34 | 1.32 |
| HSPB8 (heat shock protein family B (small) member 8) | no change | no change | -0.08 | -0.09 |
| TRIAP1 (TP53 regulated inhibitor of apoptosis 1) | no change | no change | -1.47 | 1.23 |
| DDX52 (DExD-box helicase 52) | no change | no change | -0.22 | -1.02 |
| MAPK7 (mitogen-activated protein kinase 7) | no change | no change | 0.36 | -0.32 |
| SNCA (synuclein alpha) | no change | no change | -0.38 | 0.35 |
| RDH12 (retinol dehydrogenase 12) | no change | no change | -0.18 | -0.44 |
| JAGN1 (jagunal vesicle mediated transporter 1) | no change | no change | -0.36 | 0.33 |
| LBR (lamin B receptor) | no change | no change | 0.19 | 0.87 |
| NR0B2 (nuclear receptor subfamily 0 group B member 2) | no change | no change | 0.78 | 0.64 |
| AHRR (aryl hydrocarbon receptor repressor) | no change | no change | 0.4 | -0.17 |
| WDR5 (WD repeat domain 5) | no change | no change | -0.49 | 0.26 |
| CRTC3 (CREB regulated transcription coactivator 3) | no change | no change | 0.73 | 1.6 |
| SPATA46 (spermatogenesis associated 46) | no change | no change | 0.62 | 0.15 |
| F2RL1 (F2R like trypsin receptor 1) | no change | no change | 0.83 | -0.18 |
| NDST4 (N-deacetylase and N-sulfotransferase 4) | no change | no change | 1.04 | -0.68 |
| MARK4 (microtubule affinity regulating kinase 4) | no change | no change | -0.24 | -0.64 |
| NELFE (negative elongation factor complex member E) | no change | no change | 0.58 | -0.6 |
| SLC25A53 | no change | no change | -1.04 | 2.66 |
| FOXD4L6 (forkhead box D4 like 6) | no change | no change | -0.56 | -0.13 |
| KLHL25 (kelch like family member 25) | no change | no change | -1.19 | -1.12 |
| RELL2 (RELT like 2) | no change | no change | -0.56 | -0.42 |
| FRMD3 (FERM domain containing 3) | no change | no change | 0.4 | -0.36 |
| CCDC74B (coiled-coil domain containing 74B) | no change | no change | 0.73 | 2.42 |
| TAGLN (transgelin) | no change | no change | -2.12 | 0.04 |
| HNRNPUL2 (heterogeneous nuclear ribonucleoprotein U like 2) | no change | no change | 0.21 | 0.54 |
| GLIS2 (GLIS family zinc finger 2) | no change | no change | 0.55 | -0.7 |
| ZNF781 (zinc finger protein 781 (pseudogene)) | no change | no change | 0.22 | -0.94 |
| WFDC2 (WAP four-disulfide core domain 2) | no change | no change | -0.05 | 1.56 |
| UQCC3 (ubiquinol-cytochrome c reductase complex assembly factor 3) | no change | no change | -0.07 | 1.63 |
| BAZ1A (bromodomain adjacent to zinc finger domain 1A) | no change | no change | 0.76 | 0.96 |
| ANAPC1 (anaphase promoting complex subunit 1) | no change | no change | -0.61 | 1.45 |
| PRPF6 (pre-mRNA processing factor 6) | no change | no change | -2.37 | -0.63 |
| RGS17 (regulator of G protein signaling 17) | no change | no change | 0.06 | -0.77 |
| OPN4 (opsin 4) | no change | no change | 0.1 | 0.76 |
| BTBD17 (BTB domain containing 17) | no change | no change | -0.98 | 0.29 |

Reformatted: results already given.
{"target": "HNRNPUL2 (heterogeneous nuclear ribonucleoprotein U like 2)", "viability hit class": "no change", "caspase hit class": "no change", "viability robust z-score": 0.21, "caspase robust z-score": 0.54}
{"target": "GLIS2 (GLIS family zinc finger 2)", "viability hit class": "no change", "caspase hit class": "no change", "viability robust z-score": 0.55, "caspase robust z-score": -0.7}
{"target": "ZNF781 (zinc finger protein 781 (pseudogene))", "viability hit class": "no change", "caspase hit class": "no change", "viability robust z-score": 0.22, "caspase robust z-score": -0.94}
{"target": "WFDC2 (WAP four-disulfide core domain 2)", "viability hit class": "no change", "caspase hit class": "no change", "viability robust z-score": -0.05, "caspase robust z-score": 1.56}
{"target": "UQCC3 (ubiquinol-cytochrome c reductase complex assembly factor 3)", "viability hit class": "no change", "caspase hit class": "no change", "viability robust z-score": -0.07, "caspase robust z-score": 1.63}
{"target": "BAZ1A (bromodomain adjacent to zinc finger domain 1A)", "viability hit class": "no change", "caspase hit class": "no change", "viability robust z-score": 0.76, "caspase robust z-score": 0.96}
{"target": "ANAPC1 (anaphase promoting complex subunit 1)", "viability hit class": "no change", "caspase hit class": "no change", "viability robust z-score": -0.61, "caspase robust z-score": 1.45}
